Earlier results as cited in patent publication US20060104969A1, “Compositions and methods for enhancing structural and functional nervous system reorganization and recovery” (Massachusetts Institute of Technology, priority 2004, published 2006).
Some entries share one result that the patent states for a list of compounds. For at least one compound, name, drawing or mass did not settle the structure.

Test system: neurite growth and dynamics in brain slices
Conditions: cited from earlier work

## Nc1nc2c(nc(Br)n2[C@@H]2O[C@@H]3COP(=O)(O)O[C@H]3[C@H]2O)c(=O)[nH]1 [8-Br-cGMP]
  effective doses on neurite growth and dynamics in brain slices: 10 to 100 µM
